## Primary screen of a compound library

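Whole-parasite assay of Trypanosoma brucei over 72 hours; the read-out is not stated. Tested at 30 µM. The record gives no direction; compounds that gave an IC50 in retests scored well above the rest, so higher reads as stronger inhibition. Values scatter widely below zero; nearly all retest evidence comes from the higher of the two concentrations used. About 64,000 compounds were tested under these conditions; 1.5% (about 940) showed 50% or more at least once.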

Results are given as percent effect.
How 0% and 100% were set is not recorded. Most values in the screen are low, and negative values occur.
The compounds are a random part of those screened.

| # | Compound | effect |
|---|---|---|
| 1 | `O=C(O)C(F)(F)F.[H][C@@]12COC[C@]1(CN(C)C)CN(C(=O)Cc1ccccc1C)C2` | 27.47 |
| 2 | `CC(C)(C)OC(=O)NCC1CCN(C(=O)c2ccccc2O)CC1` | -15.35 |
| 3 | `CCC1=NN2C(=N)/C(=C/c3cccc(Cl)c3)C(=O)N=C2S1` | 15.11 |
| 4 | `O=C(Nc1ccc(-c2csnn2)cc1)NC(CCO)C1CC1` (stereo not given) | -96.37 |
| 5 | `CC(C)(O)CN1CCN(C(=O)c2cccn2Cc2cccnc2)CC1` | 0.7134 |
| 6 | `CC(C)(C)c1coc([C@@H]2COCCN2Cc2ccccn2)n1` | -27.06 |
| 7 | `CCn1cc(-c2cc(-c3cc(CN(C)C)cs3)nc(N)c2C#N)c(C)n1` | -4.566 |
| 8 | `COC(CNC(=O)c1cn(C)nn1)c1ccccc1C` (stereo not given) | -12.91 |
| 9 | `COc1ccc2c(C(=O)N(C)C)cc(-c3cnc(N)nc3)nc2c1` | -35.42 |
| 10 | `CCCc1cc(=O)[nH]c(-n2nc(-c3cccs3)cc2N)n1` | -29.48 |
| 11 | `CC(=O)NCc1ccc(C(=O)NC2CCc3nc(C)cn3C2)o1` (stereo not given) | 0.4033 |
| 12 | `Cc1nsc(NC(=O)NC2(CN3CCOCC3)CCCC2)n1` | -41.06 |
| 13 | `CN(C(=O)Cn1nc(-c2ccc(Br)cc2)ccc1=O)C1CCS(=O)(=O)C1` (stereo not given) | -43.79 |
| 14 | `O=C(O)C(F)(F)F.O=C(O)C(F)(F)F.[H][C@@]12CN(Cc3scnc3C)C[C@H](C(=O)NCCOC)[C@]1([H])CCO2` | -8.141 |
| 15 | `CCN1CCC(NC(=O)CN2CCCC2Cn2cccn2)CC1` (stereo not given) | -35.37 |
| 16 | `O[C@@H]1C[C@@H](c2nc(-c3ccccc3)no2)N(C2CCOCC2)C1` | -5.278 |
| 17 | `CC1CCC(NS(=O)(=O)CC(=O)NC2(C(N)=O)CCCC2)CC1` (stereo not given) | -29.68 |
| 18 | `N#Cc1cccc(C(=O)N2CCCC(O)(CO)CC2)c1` (stereo not given) | -2.835 |
| 19 | `CCCn1nc2c(cc1=O)CN(CC(=O)Nc1nnc(C)s1)CC2` | 2.634 |
| 20 | `NC(=O)c1cccc(CCNCc2cnc(-c3cccs3)s2)c1` | -25.68 |
| 21 | `Cn1cc(C#N)cc1C(=O)Nc1ccc(CN2CCOCC2)cn1` | -2.774 |
| 22 | `CC(NC(=O)NCCCn1cccn1)c1cccnc1` (stereo not given) | -30.27 |
| 23 | `COc1ccnc(N2CCN(CC(O)CN3CCOCC3)CC2)n1` (stereo not given) | 20.29 |
| 24 | `Cn1cc(NC(=O)NCc2ccsc2)ccc1=O` | -23.14 |
| 25 | `COCCNC(=O)NCCc1ccn(-c2ccccc2)n1` | 42.02 |
| 26 | `Cn1cc(CN2CCCC3(CCN(C(=O)c4ccoc4)C3)C2)cn1` (stereo not given) | -5.909 |
| 27 | `O=C(O)C(F)(F)F.O=C(O)C(F)(F)F.[H][C@@]12CCN(C(=O)c3cncc(C)c3)[C@]1([H])CCC(=O)N2CCN(C)C` | -64.66 |
| 28 | `CS(=O)(=O)Nc1ccc([C@H]2OCC(=O)N[C@@H]2CO)cc1` | 2.064 |
| 29 | `CC(C)C1CCC(N2CCN(CCS(C)(=O)=O)CC2)CC1` (stereo not given) | -11.24 |
| 30 | `Cc1ccc(CNC(c2cccc(F)c2)c2nccn2C)o1.Cl` (stereo not given) | -11.71 |
| 31 | `CCC1c2ccsc2CCN1Cc1cc2c(cc1OC)OCCO2` (stereo not given) | -5.459 |
| 32 | `c1cc(C2CCN(Cc3ccc4c(c3)OCO4)CC2)ccn1` | -1.64 |
| 33 | `c1cncc(O[C@H]2COCCN(C3CCC3)C2)c1` | -7.312 |
| 34 | `COc1cc(CN[C@@H]2COC[C@H]2Cc2cc(C)no2)cc(OC)c1.O=C(O)CC(O)(CC(=O)O)C(=O)O` | 16.22 |
| 35 | `CC(=O)N1Cc2ccccc2CC1C(=O)Nc1cc(C)ccn1` (stereo not given) | -77.78 |
| 36 | `CCC(CNC(=O)NCc1cc[nH]n1)N1CCCC1` (stereo not given) | -40.82 |
| 37 | `O=C(NC1CC1)c1cccc(S(=O)(=O)NCCc2nc(C3CC3)no2)c1` | -27.38 |
| 38 | `CC(C)N1CCCC(CCCc2ccccn2)(C(=O)O)C1` (stereo not given) | 11.94 |
| 39 | `Cc1nnc(SCc2cc(=O)n3c4c(sc3n2)CCCC4)[nH]1` | 4.393 |
| 40 | `Cc1nnc2n1CCN(CC(=O)NC(C)c1cccc3ccccc13)C2` (stereo not given) | -29.79 |
| 41 | `Cn1ccnc1SCCNC1CCN(c2nc3ccccc3s2)CC1` | -14.43 |
| 42 | `O=C(N[C@@H]1CCCNC1)C1(Oc2ccc(Cl)cc2)CCNCC1` | -80.08 |
| 43 | `COc1cc2c(cc1CNCc1ccnc(-n3cccn3)c1)OC(C)C2.Cl` (stereo not given) | -51.89 |
| 44 | `CN1CCC(c2cccc(NCc3nccn3C)n2)CC1` | -19.05 |
| 45 | `O=C(c1cc2c(F)cccc2[nH]1)N1CCCCC1Cn1cccn1` (stereo not given) | 11.91 |
| 46 | `CCN(C)S(=O)(=O)N1CCCC(c2cccc(C(=O)O)c2)C1` (stereo not given) | -31.67 |
| 47 | `COCC(c1cccc(C(F)(F)F)c1)N(C)C(=O)c1cccnc1` (stereo not given) | 3.827 |
| 48 | `Cc1nc(CNC(=O)Nc2c(C)n[nH]c2C)cs1` | 1.702 |
| 49 | `O=c1[nH]c2nc(N3CCSCC3)ncc2c(=O)n1-c1ccc(F)cc1` | -10.18 |
| 50 | `CSc1ccccc1C(C(=O)O)N(C)CC1CCOCC1` (stereo not given) | -33.44 |
| 51 | `CCc1nnc(C(C)N2CCCN(C(=O)Oc3ccccc3)CC2)o1` (stereo not given) | -11.47 |
| 52 | `COc1ccc(CN2CC(O)CN(C(=O)C3CCC3)CC2=O)cc1` (stereo not given) | -22.32 |
| 53 | `CN1CCCC1CCNC(=O)c1ccccc1-n1cc(CN)cn1` (stereo not given) | -23.47 |
| 54 | `CCOc1ccccc1CCNC(=O)NCC(O)c1ccsc1` (stereo not given) | -63.54 |
| 55 | `O=C(CCCSc1ccc(NC(=O)C2CC2)nn1)NCC1CCCO1` (stereo not given) | -3.506 |
| 56 | `CCC(=O)N1CCN(C(=O)CCn2cccn2)CC1` | 14.96 |
| 57 | `CC1COC2(CCN(C(=O)c3ncoc3C(C)C)CC2)O1` (stereo not given) | -17.03 |

Repeated from the top, 5 entries:

- O=C(O)C(F)(F)F.[H][C@@]12COC[C@]1(CN(C)C)CN(C(=O)Cc1ccccc1C)C2 | 27.47%
- CC(C)(C)OC(=O)NCC1CCN(C(=O)c2ccccc2O)CC1 | -15.35%
- CCC1=NN2C(=N)/C(=C/c3cccc(Cl)c3)C(=O)N=C2S1 | 15.11%
- O=C(Nc1ccc(-c2csnn2)cc1)NC(CCO)C1CC1 (stereo not given) | -96.37%
- CC(C)(O)CN1CCN(C(=O)c2cccn2Cc2cccnc2)CC1 | 0.7134%

Measurements from “University of Dundee, Small-Polar-MMV Screening Library” (2021), ChEMBL document CHEMBL3988442.